# Test results from PubChem BioAssay AID1671190 (National Center for Advancing Translational Sciences (NCATS), 2021).
# By UniProt entry, the sequences of proteins in these tests, tags left out. Where a name states a change or a piece, a line headed by the entry shows the natural chain unless it says otherwise.
# UniProt P18054: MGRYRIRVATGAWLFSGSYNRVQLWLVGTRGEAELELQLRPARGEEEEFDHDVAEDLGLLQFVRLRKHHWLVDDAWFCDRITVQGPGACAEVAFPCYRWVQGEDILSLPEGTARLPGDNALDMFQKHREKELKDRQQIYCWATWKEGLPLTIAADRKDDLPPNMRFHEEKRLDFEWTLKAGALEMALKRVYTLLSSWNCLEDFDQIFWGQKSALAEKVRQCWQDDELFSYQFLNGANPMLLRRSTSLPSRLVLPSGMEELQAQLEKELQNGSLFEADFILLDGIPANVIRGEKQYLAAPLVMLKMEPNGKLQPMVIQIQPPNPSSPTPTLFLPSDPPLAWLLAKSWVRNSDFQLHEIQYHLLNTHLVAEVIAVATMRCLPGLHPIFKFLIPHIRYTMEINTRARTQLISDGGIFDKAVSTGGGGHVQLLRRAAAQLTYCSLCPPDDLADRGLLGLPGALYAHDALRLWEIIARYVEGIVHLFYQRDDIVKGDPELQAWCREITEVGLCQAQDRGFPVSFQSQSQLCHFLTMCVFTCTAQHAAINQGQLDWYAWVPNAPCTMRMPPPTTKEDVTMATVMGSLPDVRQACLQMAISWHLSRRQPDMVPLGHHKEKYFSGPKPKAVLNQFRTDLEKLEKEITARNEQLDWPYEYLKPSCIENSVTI
# About 6,100 (1.1%) of roughly 580,000 compounds were called active. Inconclusive results, whose numbers are uncertain, are shown with a selection of clear calls. The call rests on the fitted dose curve; in most records, active means well fitted inhibition curve with a large enough effect; inconclusive means small, poorly fitted or top-dose-only effect, or another doubt; inactive means no such curve, though single readings can be large or run the other way. Where the call is inconclusive, the potency comes from a doubtful curve fit.
# Target: Polyunsaturated fatty acid lipoxygenase ALOX12 (Homo sapiens) (UniProt P18054)
# Assay: Primary qHTS assay for inhibitors of human arachidonate 12S-lipoxygenase (ALOX12): Round 2
# Conditions: purified 12hLO, xylenol orange hydroperoxide absorbance; activity change, negative = inhibition: at 108 µM (top of the series) unless noted
# How it was run: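 Purified human 12hLO at 150 nM in 25 mM Hepes, 0.01% Triton X-100, pH 7.0, preincubated 15 min at room temperature with compound. Reaction started with 40 uM arachidonic acid, 30 min at room temperature. Hydroperoxide measured by Fe-xylenol orange, 573/405 nm absorbance ratio.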
# On the % scale 0 is the no-effect control and ±100 the full control effect; potency means the concentration at half of the fitted maximal effect.
Compound,Potency,"activity change, negative = inhibition"
S=C(NC1CCCCC1)N(CCc1ccccc1)CCc1ccccc1,"inconclusive: 44.7 µM [inhibitor, partial curve, poor fit]",–
Cc1ccc(C(=O)Nc2ccc(CN3CCS(=O)(=O)CC3)cc2)cc1C,"inconclusive: 112 µM [inhibitor, single point]",–
Cc1ccc(CNc2oc(-c3ccc(COc4ccc(Cl)cc4)o3)nc2C#N)cc1,"inconclusive: 0.316 µM [inhibitor, full curve, poor fit]",–
Cc1ccc(-c2nc(CN3CCCC3c3nnc4ccccn34)co2)cc1 (centres undefined),"inconclusive: 50.1 µM [inhibitor, partial curve, poor fit]",–
C[C@@]12CCC=C[C@H]1[C@H](c1ccc3ccccc3c1Br)N(Cc1ccccc1)C2=O,"inconclusive: 50.1 µM [inhibitor, partial curve, poor fit]",–
Cc1cc2c(cc1C)CSC(c1ccccc1O)SC2,"inconclusive: 56.2 µM [inhibitor, single point]",–
COc1ccc(Cl)cc1N(CC(=O)N1CCc2ccccc2C1)S(C)(=O)=O,–,inactive: 11.8%
CCOC(=O)Nc1ccc2c(c1)N(C(=O)CCN1CCN3CCCC3C1)c1ccccc1CC2 (centres undefined),"inconclusive: 5.01 µM [inhibitor, full curve, poor fit]",–
CN1CC(=O)N(C2CCNCC2)Cc2c(NC3CCCCC3O)ncnc21 (centres undefined),active: 11.2 µM,–
CCOc1ccc(-c2cc3nc(C4CCN(C(=O)OC(C)(C)C)CC4)c(C(=O)Nc4ccc(C)c(F)c4)cn3n2)cc1,–,inactive: 6.85%
COc1cccc(/C=N/n2nnnc2N)c1OCc1ccccc1Cl,–,inactive: 0%
Oc1ccc(N2CCN(Cc3cc4c(cc3Br)OCCO4)CC2)cc1,"inconclusive: 44.7 µM [inhibitor, partial curve, poor fit]",–
Cc1cc2oc(=O)cc(CN(C)CCOc3ccc(F)cc3)c2cc1Cl,"inconclusive: 14.1 µM [inhibitor, partial curve]",–
O=c1[nH]c(SCc2n[nH]c(=S)n2-c2ccccc2)nc2sc3c(c12)CCC3,"inconclusive: 50.1 µM [inhibitor, partial curve]",–
COc1ccc(CNc2nc(-c3ccco3)nn2S(=O)(=O)c2ccc(C)cc2)cc1OC,–,inactive: -20.8%
Cn1ncc(N2CCC(CNC(=O)c3cn4cccnc4n3)C2)cc1=O (centres undefined),–,inactive: 36.2%
Cc1ccc2c(=O)cc(C(=O)N(Cc3ccccc3)c3ccccn3)oc2c1C,"inconclusive: 56.2 µM [inhibitor, partial curve, poor fit]",–
Cc1cc(N2C(=O)C(O)=C(C(=O)c3cc4ccccc4o3)C2c2ccc(Cl)cc2)no1 (centres undefined),active: 39.8 µM,–
CC1=NOC(=O)/C1=C/c1ccc(O)cc1,active: 15.8 µM,–
Cc1cccc(NC(=O)CSC2=Nc3ccccc3C3=NC(CCC(=O)NCc4ccc(F)cc4)C(=O)N23)c1 (centres undefined),"inconclusive: 141 µM [inhibitor, single point]",–
COc1ccc(NC(=O)N2CCCCC2c2nc(C3CC3)n[nH]2)cc1 (centres undefined),"inconclusive: 1.41 µM [inhibitor, full curve, poor fit]",–
O=C(CSCc1cccs1)NCC1CC1,–,inactive: 61.7%
CCOC(=O)C1CCN(C(=O)COC(=O)CSc2ccc([N+](=O)[O-])cc2)CC1,"inconclusive: 50.1 µM [inhibitor, partial curve, poor fit]",–

Compound,Potency,"activity change, negative = inhibition"
N#CCCN1CCN(c2cc(C(=O)O)c3cc(NC(=O)c4ccccc4)ccc3n2)CC1,active: 6.31 µM,–
Cc1ccc(-n2c3c(c(=O)[nH]c2=O)C(NS(=O)(=O)c2ccc(C)cc2)(C(F)(F)F)C(=O)N3)cc1 (centres undefined),"inconclusive: 56.2 µM [inhibitor, partial curve, poor fit]",–
CC(C)C(NC(N)=O)C(=O)O (centres undefined),–,inactive: -2.19%
CSc1ccc(CN(C)C(=O)c2cc(S(=O)(=O)NCc3ccccc3)ccc2C)cc1,"inconclusive: 89.1 µM [inhibitor, partial curve, poor fit]",–
COc1cccc(C2C(C(=O)c3cc4ccccc4o3)=C(O)C(=O)N2c2cc(C)on2)c1OC (centres undefined),"inconclusive: 28.2 µM [inhibitor, partial curve]",–
COc1cc2c(cc1Cn1cc(-c3nccn3C)nn1)CCC2,–,inactive: 23.9%
CCOC(=O)c1nnc(-c2ccccc2)nc1Oc1ccc(Cl)cc1,"inconclusive: 3.55 µM [inhibitor, full curve, poor fit]",–
COc1ccccc1N1CCN(Cc2nc(-c3ccc(F)cc3)oc2C)CC1,–,inactive: -4.02%
CC1(C)CC(CCNS(=O)(=O)c2ccccc2)(c2ccccc2)CCO1 (centres undefined),"inconclusive: 79.4 µM [inhibitor, partial curve, poor fit]",–
CC1(C(=O)NCc2ccc3c(c2)OCO3)CCN1C(=O)Cc1cccs1 (centres undefined),"inconclusive: 79.4 µM [inhibitor, single point]",–
CCc1ccc(CN(C)C(=O)c2cc(S(=O)(=O)N3CCN(CC)CC3)ccc2Cl)cc1,–,inactive: -20.3%
Cc1ccccc1Nc1nc(-c2ccc(C)c([N+](=O)[O-])c2)cs1,"inconclusive: 39.8 µM [inhibitor, partial curve, poor fit]",–
CCOC(=O)CSc1nc2c(cnn2-c2ccc(F)cc2)c(=O)[nH]1,–,inactive: 1.7%
CC(/C=C1\SC(=S)N(CCC(=O)Nc2nc(C)cs2)C1=O)=C\c1ccccc1,"inconclusive: 5.01 µM [inhibitor, partial curve, poor fit]",–
COc1ccc(C(=O)C(=NN)c2ccccc2)cc1,–,inactive: -19%
CC(=O)c1cccc(NC(=O)N2CCCC2C(=O)NC2CCCC2)c1 (centres undefined),–,inactive: -1.94%
Cc1ccc(NC(=O)c2cncc(Br)c2)cc1S(=O)(=O)N(C)C,–,inactive: -6.32%
CC(=O)N1CCN(C(=O)c2cn(CCN)nn2)[C@H]2CS(=O)(=O)C[C@H]21,"inconclusive: 8.91 µM [inhibitor, full curve]",–
O=C(CCSc1nc(-c2ccco2)cc(C(F)(F)F)n1)N1CCCc2ccccc21,"inconclusive: 35.5 µM [inhibitor, partial curve, poor fit]",–
O=C(/C=C\c1ccc(-c2ccccc2)o1)c1ccccc1,"inconclusive: 5.01 µM [inhibitor, full curve, poor fit]",–
CC(=O)Nc1cccc(-c2ccnc3c2CC(C)(C(=O)Nc2ccccc2)O3)c1 (centres undefined),–,inactive: -0.269%
COC(=O)[C@@]1(Sc2ccc(C)cc2)CC(=O)N(c2ccccc2)[C@@H]1c1ccccc1,"inconclusive: 44.7 µM [inhibitor, partial curve]",–
COc1ccc2c(c1)c1ncn(CC3CCCO3)c(=O)c1n2C (centres undefined),"inconclusive: 1.41 µM [inhibitor, partial curve, poor fit]",–

Compound,Potency,"activity change, negative = inhibition"
Cn1cccc1CN1CCC2(CC1)CNC(=O)c1ccccc1O2,–,inactive: 8.69% [at 6.33 µM]
O=C(N/N=C/c1cccs1)c1cccc(NC(=O)c2ccc(Cl)cc2)c1,–,inactive: -2.89%
CN(CCc1ccccn1)c1cc(C2CC(O)C2)ncn1 (centres undefined),"inconclusive: 1.26 µM [inhibitor, full curve]",–
COc1ccc(NC(=O)c2c3c(nc4ccccc24)CCN(Cc2ccccc2)C3)c(OC)c1,–,inactive: 1.07%
COc1ccc(C(=O)N(C)CC(=O)Nc2cccc(F)c2)cc1S(=O)(=O)NC1CCCC1,"inconclusive: 100 µM [inhibitor, partial curve, poor fit]",–
O=C(NC12CC3CC(CC(C3)C1)C2)c1cccc(F)c1,–,inactive: 4.78%
CCCCc1ccc(S(=O)(=O)NC(=O)C2(C)CCN2C(=O)c2cccc(F)c2)cc1 (centres undefined),"inconclusive: 112 µM [inhibitor, single point]",–
O=C(CSc1ccc2c(c1)OCCCO2)N1CCCc2ccccc21,"inconclusive: 126 µM [inhibitor, single point]",–
COc1ccc(-n2c(=O)c(-c3ccc(Cl)cc3)nc3cnc(N4CCOCC4)nc32)cc1,"inconclusive: 14.1 µM [inhibitor, partial curve, poor fit]",–
O=C(NCCn1cc(SCc2ccccc2F)c2ccccc21)c1cccs1,"inconclusive: 2.51 µM [inhibitor, full curve, poor fit]",–
O=C1CCCC2=C1C1(O)C(=O)c3ccccc3C1(O)O2 (centres undefined),"inconclusive: 56.2 µM [inhibitor, partial curve, poor fit]",–
Cc1ccc(Cc2c(-c3ccc(C#N)cc3)nc3ccc(Cl)cn23)cc1,"inconclusive: 44.7 µM [inhibitor, partial curve, poor fit]",–
Fc1cc(Br)ccc1OCc1cc(-c2cccs2)on1,"inconclusive: 6.31 µM [inhibitor, partial curve, poor fit]",–
CCN(CC)CCNCC1C(=O)O[C@@H]2C[C@@]3(C)CCC[C@H](C)C3=C[C@H]12 (some centres undefined),–,inactive: 0%
CC(=O)OCCN1c2ccccc2Sc2cnccc21,–,inactive: -23.3%
O=c1n(Cc2ccccc2)c(O)c2n1Cc1ccccc1N=C2c1ccccc1,"inconclusive: 89.1 µM [inhibitor, partial curve, poor fit]",–
Cc1nn2c(c1-c1cccnc1N1CCOCC1)N(CCc1ccccc1)CCC2,active: 20 µM,–
C=C1N(S(=O)(=O)C(F)(F)F)CCC12CN(C)c1ccccc12 (centres undefined),"inconclusive: 89.1 µM [inhibitor, single point]",–
O=C1NC(=O)/C(=C/c2ccc(-c3cc(C(=O)O)ccc3Cl)o2)S1,"inconclusive: 14.1 µM [inhibitor, full curve]",–
CC1(C)CC2CC(C)(CN2C(=O)COC(=O)c2cccnc2Cl)C1 (centres undefined),–,inactive: 15.5%
COc1ccc(C(=O)O/N=C(\C)c2ccccc2)cc1,–,inactive: -3.41%
N#Cc1ccccc1NC(=O)c1ccco1,–,inactive: 28.6%
COc1ccc(CN2CC[C@@H]3CN(C(C)=O)[C@H](c4ccccc4Br)C[C@@H]32)cc1,"inconclusive: 112 µM [inhibitor, single point]",–

# Four of these compounds, reformatted.
Compound	Potency	activity change, negative = inhibition
COc1ccc(C(=O)N(C)CC(=O)Nc2cccc(F)c2)cc1S(=O)(=O)NC1CCCC1	inconclusive: 100 µM [inhibitor, partial curve, poor fit]	–
O=C(NC12CC3CC(CC(C3)C1)C2)c1cccc(F)c1	–	inactive: 4.78%
CCCCc1ccc(S(=O)(=O)NC(=O)C2(C)CCN2C(=O)c2cccc(F)c2)cc1 (centres undefined)	inconclusive: 112 µM [inhibitor, single point]	–
O=C(CSc1ccc2c(c1)OCCCO2)N1CCCc2ccccc21	inconclusive: 126 µM [inhibitor, single point]	–
